PubChem BioAssay AID504791, Drosophila RNAi Screening Center – 2011

- Test: 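Factors in Argonaute-based small RNA production and activity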 (primary screen)
- Cell system: Drosophila S2-derived reporter cells
- Reagents: long dsRNA against Drosophila genes, about 150-250 ng dsRNA per well (siRNA assay); about 80-120 ng (miRNA assay)
- Duration: about 5 days (siRNA assay); about 4 days (miRNA assay)
- Challenge: copper sulfate induction of reporters: 25 µM (siRNA assay); 200 mM stated (miRNA assay), 1-2 days before reading
- Measured: 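Per-well ratio of Renilla over firefly light, expressed relative to that plate's average ratio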
- Rule for the call: 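a well was a first-pass pick when its plate-scaled ratio rose above 1.5 (siRNA assay) or 1.6 (miRNA assay), or dropped below 0.6; a gene counted only if two separate dsRNAs agreed on retest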
The screen tested about 23,000 reagents; this is a random part of those that have a named target and a result. Over the whole deposit, 199 (0.86%) are marked active. 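Plate-scaled ratios behind the calls are not deposited; printed light signals are raw; many rows marked increased or decreased are still called inactive.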 Entries without a mark were called inactive. The numbers tell different reagents against one gene apart. A plus sign joins genes that one reagent is predicted to hit. Not given: the direction of the score.

Target gene	dsRNA no.	stable siRNA reporter change	miRNA reporter change	stable assay Renilla, run 1 (luminescence)	stable assay firefly, run 1 (luminescence)
Fad2	1			5036	2.26e5
flip (flippy)	1			6523	3.16e5
CG18558	1			8174	6.07e5
CG18558	2			9370	6.26e5
Ist1	1			7829	5.70e5
JMJD5 (Jumonji domain containing 5)	1			6231	4.05e5
CG3630	1			8970	4.44e5
Nepl21 (Neprilysin-like 21)	1			8494	6.56e5
garz (gartenzwerg)	1			4411	2.63e5
Awh (Arrowhead)	1			6447	4.62e5
CG7044	1			9106	4.47e5
ptc (patched)	1			5227	6.05e5
ptc (patched)	2			5647	3.67e5
CG14327	1			7825	4.35e5
CG14676	1			6231	3.49e5
Rlb1	1			6451	3.90e5
pr (purple)	1			1.13e5	1.54e6
CG15098	1			7056	4.42e5
Cp38 (Chorion protein 38)	1			5414	3.37e5
betaTry (betaTrypsin)	1			5300	3.75e5
betaTry (betaTrypsin)	2			8643	5.40e5
dnd (dead end)	1			7326	3.78e5
Hmu (Hemomucin)	1			6451	4.02e5
Actn (alpha actinin)	1			8372	4.70e5
Vlet (Valette)	1			8994	4.87e5
form3 (formin 3)	1			5924	3.75e5
form3 (formin 3)	2			8218	4.21e5
form3 (formin 3)	3			5892	3.88e5
CG14416	1			7019	4.08e5
Rme-8 (Receptor mediated endocytosis 8)	1	reporter ratio lowered past the hit cutoff		6951	5.91e5
CG13060	1			6668	4.52e5
PpY-55A (Protein phosphatase Y at 55A)	1			6182	3.55e5
PpY-55A (Protein phosphatase Y at 55A)	2			4147	2.97e5
CG3342	1			7200	3.78e5
CG32444	1			8693	3.29e5
tefu (telomere fusion)	1			7700	3.62e5
Gr93a (Gustatory receptor 93a)	1			7167	3.33e5
Myd88	1			8696	4.88e5
CG17571	1			5888	3.33e5
CG17571	2			6926	3.86e5
CG13838	1			3271	4.12e5
Spn53F (Serpin 53F)	1			5894	3.13e5
CG14154	1			6235	3.81e5
MESK2 + CG10494	1			7942	3.92e5
CG9646	1			7307	4.07e5
sloth2 + sloth1	1			5467	3.08e5
sloth2 + sloth1	2			5342	3.52e5
Gr66a (Gustatory receptor 66a)	1			6735	4.10e5
Acp62F (Accessory gland protein 62F)	1			7155	4.15e5
Hmg-2 (High mobility group protein 2)	1			29059	4.44e5
CG33061	1			7015	3.81e5
CG33061	2			3263	3.31e5
gammaSnap2 (gamma Soluble NSF attachment protein 2)	1			6466	4.16e5
CG9044	1			54747	2.34e5
CTCF	1			8367	3.93e5
Fatp3 (Fatty acid transport protein 3)	1			5723	3.40e5

Taken from above.
CG13838, stable assay Renilla, run 1 (luminescence) = 3271
form3 (formin 3) #3, stable assay firefly, run 1 (luminescence) → 3.88e5
CG33061 #1, stable assay firefly, run 1 (luminescence): 3.81e5
For “stable assay firefly, run 1 (luminescence)”, JMJD5 (Jumonji domain containing 5) reads 4.05e5
ptc (patched) #2, stable assay firefly, run 1 (luminescence) → 3.67e5
CG15098, stable assay Renilla, run 1 (luminescence) = 7056

Further entries follow.
Target gene	dsRNA no.	stable siRNA reporter change	miRNA reporter change	stable assay Renilla, run 1 (luminescence)	stable assay firefly, run 1 (luminescence)
CG8292	1			8503	3.31e5
Pif1A (PFTAIRE-interacting factor 1A)	1			7195	3.95e5
Pif1A (PFTAIRE-interacting factor 1A)	2			6975	4.47e5
CG18324	1			8966	4.30e5
l(3)mbn (lethal (3) malignant blood neoplasm)	1			5167	4.28e5
Cpr47Eb (Cuticular protein 47Eb)	1			7595	4.16e5
CG2063	1			6643	3.51e5
CG12071	1	reporter ratio raised past the hit cutoff		6694	2.45e5
CG12071	2			5215	4.62e5
CG6685	1			7107	4.50e5
Cont (Contactin)	1			9029	3.75e5
Mal-B1 (Maltase B1)	1			7559	5.21e5
NijA (Ninjurin A)	1		reporter ratio raised past the hit cutoff	7256	5.88e5
Ir7g (Ionotropic receptor 7g)	1			5366	3.45e5
CG3568	1			6135	3.20e5
Wdr59 (WD repeat domain 59)	1			6275	5.70e5
CG16984	1			6706	3.51e5
CG14356	1			6330	5.09e5
gdrd (goddard)	1			7743	4.91e5
ppk20 (pickpocket 20)	1			6571	3.81e5
Eglp4 (Entomoglyceroporin 4)	1			6698	2.66e5
QC (Glutaminyl cyclase)	1			7754	4.96e5
CG9269	1			6392	4.28e5
Brd8 (Bromodomain containing 8)	1			10079	6.07e5
CG31524	1			10170	7.67e5
Cyp6d5 (Cytochrome P450 6d5)	1			9311	4.14e5
Golgin245 (Golgin-245)	1			95891	5.28e5
Golgin245 (Golgin-245)	2			11553	7.07e5
dany (distal antenna-young)	1			7647	3.16e5
CG17294	1			11823	1.40e6
TM9SF2 (Transmembrane 9 superfamily protein member 2)	1		reporter ratio lowered past the hit cutoff	8225	3.65e5
CG13110	1			5219	4.40e5
tok (tolkin)	1			11711	4.79e5
CG5681	1			7294	3.94e5
beat-IIIc (beaten path IIIc)	1			7383	5.44e5
beat-IIIc (beaten path IIIc)	2			7531	4.78e5
ras (raspberry)	1			7244	4.07e5
CG7991	1			5607	3.03e5
fdl (fused lobes)	1			5435	2.80e5
PH4alphaNE3 (prolyl-4-hydroxylase-alpha NE3)	1			7871	4.72e5
Eip63F-1 (Ecdysone-induced protein 63F 1)	1			4387	2.97e5
Eip63F-1 (Ecdysone-induced protein 63F 1)	2			7447	4.98e5
Atg14 (Autophagy-related 14)	1			7352	4.62e5
Ziz (Zizimin)	1			6614	3.77e5
Ziz (Zizimin)	2			9901	5.91e5
IntS10 (Integrator 10)	1			11934	6.48e5
CG13133	1			5771	4.05e5
CG33981 + fab1	1			8356	3.52e5
CG14096	1			4755	5.20e5
CG14096	2		reporter ratio lowered past the hit cutoff		
